Results: the supplement of paper PMC9226226
Several values for one entry are separate records, joined by “and”; a condition that tells them apart may be missing. Equal entries are not always repeated. ± gives the standard deviation of the averaged measurements. This is one part of the list. Some well-known active drugs show little effect in this data set, so a weak value is uncertain.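 Human mesenchymal stem cells lacking the Werner syndrome gene, which age prematurely, were used. Automated live-cell imaging tracked growth across three biological repeats; the twenty drugs raising growth most relative to vehicle advanced, without a stated fixed cutoff.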

Test system: Werner syndrome hMSCs (WRN-/-)
Experiment: relative cell density (fold change vs vehicle control); higher = more proliferation (geroprotective)
Conditions: concentration (umol/L): 1, 6 days

COc1cc2c(Oc3ccc4[nH]c(C)cc4c3F)ncnc2cc1OCCCN1CCCC1
relative cell density (vehicle: DMSO): 0.464

CN(C)c1nc(N(C)C)nc(N(C)C)n1
relative cell density (vehicle: DMSO): 0.846

CCn1c(=O)c(-c2cc[nH]n2)cc2c(C)nc(N)nc21
relative cell density (vehicle: DMSO): 0.753

CNS(=O)(=O)C[C@H]1CC[C@H](N(C)c2[nH]cnc3nccc2-3)CC1
relative cell density (vehicle: DMSO): 1.09

COc1ccccc1OCC(O)CN1CCN(CC(=O)Nc2c(C)cccc2C)CC1 (stereo unspecified)
relative cell density (vehicle: DMSO): 1.01 and 1.34

COc1cc([C@@H]2c3cc4c(cc3[C@@H](O[C@@H]3O[C@@H]5CO[C@@H](C)O[C@H]5[C@H](O)[C@H]3O)[C@H]3COC(=O)[C@H]23)OCO4)cc(OC)c1O
relative cell density (vehicle: DMSO): 0.258

NC(=O)C(c1ccccc1)(c1ccccc1)[C@@H]1CCN(CCc2ccc3c(c2)CCO3)C1
relative cell density (vehicle: DMSO): 1.15

CCCNCC(O)COc1ccccc1C(=O)CCc1ccccc1 (stereo unspecified)
relative cell density (vehicle: DMSO): 1.26

Cn1c(=O)cc(N2CCCC(N)C2)n(Cc2ccccc2C#N)c1=O (stereo unspecified)
relative cell density (vehicle: DMSO): 1.05

C[C@H]1C[C@@H]2[C@H]([C@@H](O)C[C@@]3(C)[C@H]2CC[C@]3(O)C(=O)CO)[C@@]2(C)C=CC(=O)C=C12
relative cell density (vehicle: DMSO): 0.84

COc1ccc(C2CNC(=O)C2)cc1OC1CCCC1 (stereo unspecified)
relative cell density (vehicle: DMSO): 1.34 and 1.19

O=C1OCCN1/N=C/c1ccc([N+](=O)[O-])o1
relative cell density (vehicle: DMSO): 1.16

CCOC(=O)[C@H](CCc1ccccc1)N[C@H]1CS[C@H](c2cccs2)CN(CC(=O)O)C1=O
relative cell density (vehicle: DMSO): 0.869

c1ccc([C@H]2CN3CCSC3=N2)cc1
relative cell density (vehicle: Water): 1.01 ± 0.15

CCC(=O)O[C@]1(C(=O)CCl)[C@@H](C)C[C@H]2[C@@H]3CCC4=CC(=O)C=C[C@]4(C)[C@@]3(F)[C@@H](O)C[C@@]21C
relative cell density (vehicle: DMSO): 1.09

O=S(=O)(O)c1cc(O)ccc1O
relative cell density (vehicle: DMSO): 0.638

Cc1c(O)c(=O)ccn1C
relative cell density (vehicle: Water): 1.4

NNc1nncc2ccccc12
relative cell density (vehicle: Water): 0.786

CC(=O)OCC(CCn1cnc2cnc(N)nc21)COC(C)=O
relative cell density (vehicle: DMSO): 1.39

C[C@H](CCC(=O)O)[C@H]1CC[C@H]2[C@@H]3[C@H](O)C[C@@H]4C[C@H](O)CC[C@]4(C)[C@H]3CC[C@]12C
relative cell density (vehicle: DMSO): 1.29

Nc1cc(C(Cl)=C(Cl)Cl)c(S(N)(=O)=O)cc1S(N)(=O)=O
relative cell density (vehicle: DMSO): 1.19

CC[C@H](C)C(=O)O[C@H]1CCC=C2C=C[C@H](C)[C@H](CC[C@@H]3C[C@@H](O)CC(=O)O3)[C@H]21
relative cell density (vehicle: DMSO): 1.02

C1CNCCN1
relative cell density (vehicle: DMSO): 1.13

O=c1oc2ccccc2c(O)c1Cc1c(O)c2ccccc2oc1=O
relative cell density (vehicle: DMSO): 1.17

CC(=O)[C@]1(O)Cc2c(O)c3c(c(O)c2[C@@H](O[C@H]2C[C@H](N)[C@H](O)[C@H](C)O2)C1)C(=O)c1ccccc1C3=O
relative cell density (vehicle: DMSO): 0.0509

CC(/C=C1\SC(=S)N(CC(=O)O)C1=O)=C\c1ccccc1
relative cell density (vehicle: Water): 0.833

CN1CCN(CCCN2c3ccccc3Sc3ccc(Cl)cc32)CC1
relative cell density (vehicle: DMSO): 1.27

Cc1nc(=O)c2cc(CN(C)c3ccc(C(=O)N[C@@H](CCC(=O)O)C(=O)O)s3)ccc2[nH]1
relative cell density (vehicle: DMSO): 1.4

COCC[n+]1c2c(n(Cc3cnccn3)c1C)C(=O)c1ccccc1C2=O
relative cell density (vehicle: DMSO): 0.231

COc1ccc([C@]2(C#N)CC[C@@H](C(=O)O)CC2)cc1OC1CCCC1
relative cell density (vehicle: DMSO): 1.32

O=c1[nH]c(=O)n(C2CCCO2)cc1F (stereo unspecified)
relative cell density (vehicle: DMSO): 0.966

C[C@@H]1CCN(C(=O)CC#N)C[C@@H]1N(C)c1ncnc2[nH]ccc12
relative cell density (vehicle: DMSO): 1.02

CO[C@@]12[C@H](COC(N)=O)C3=C(C(=O)C(C)=C(N)C3=O)N1C[C@@H]1N[C@@H]12
relative cell density (vehicle: DMSO): 0.605

CC1=Nc2ccc(Cl)cc2S(=O)(=O)N1
relative cell density (vehicle: DMSO): 1.46

CCCN(CCC)C(=O)C1=Cc2ccc(-c3ccc(C(=O)N4CCCC4)cc3)cc2N=C(N)C1
relative cell density (vehicle: DMSO): 1.36

O=C(NCCO[N+](=O)[O-])c1cccnc1
relative cell density (vehicle: DMSO): 1.29

C=C1/C(=C\C=C2/CCC[C@]3(C)[C@@H]([C@H](C)/C=C/[C@@H](O)C4CC4)CC[C@@H]23)C[C@@H](O)C[C@@H]1O
relative cell density (vehicle: DMSO): 1.24

Cc1ccc(Cl)c(Nc2ccccc2C(=O)O)c1Cl
relative cell density (vehicle: DMSO): 0.94

CCN1CCN(C(=O)N[C@@H](C(=O)N[C@@H]2C(=O)N3C(C(=O)O)=C(CSc4nnnn4C)CS[C@H]23)c2ccc(O)cc2)C(=O)C1=O
relative cell density (vehicle: DMSO): 0.89

CN(C)CCOc1ccc(/C(=C(/CCCl)c2ccccc2)c2ccccc2)cc1
relative cell density (vehicle: DMSO): 0.977

C[C@H]1C[C@H]2[C@@H]3CCC4=CC(=O)C=C[C@]4(C)[C@@]3(F)[C@@H](O)C[C@]2(C)[C@@]1(O)C(=O)CO
relative cell density (vehicle: DMSO): 1.39

CNC(=O)[C@H](Cc1c[nH]c2ccccc12)NC(=O)[C@@H](CC(=O)NO)CC(C)C
relative cell density (vehicle: DMSO): 1.15

CC(=O)Oc1c(C)c(C)c2c(c1C)CCC(C)(CCC[C@H](C)CCC[C@H](C)CCCC(C)C)O2 (stereo partly specified)
relative cell density (vehicle: DMSO): 0.874

Oc1ccc(OCc2ccccc2)cc1
relative cell density (vehicle: DMSO): 1.17

CCCc1nc(C)c2c(=O)nc(-c3cc(S(=O)(=O)N4CCN(CC)CC4)ccc3OCC)[nH]n12
relative cell density (vehicle: DMSO): 0.928

COc1cc2nccc(Oc3ccc(NC(=O)C4(C(=O)Nc5ccc(F)cc5)CC4)cc3)c2cc1OC
relative cell density (vehicle: DMSO): 0.912 and 1.73

O=C(O)/C=C/c1ccc(Cn2ccnc2)cc1
relative cell density (vehicle: DMSO): 1.17 and 1.12

COCCOC(=O)C1=C(C)NC(C)=C(C(=O)OC/C=C/c2ccccc2)C1c1cccc([N+](=O)[O-])c1 (stereo unspecified)
relative cell density (vehicle: DMSO): 0.864

CCOc1nc2cccc(C(=O)O)c2n1Cc1ccc(-c2ccccc2-c2noc(=O)[nH]2)cc1
relative cell density (vehicle: DMSO): 1.09

COc1cc(O)c(C(=O)Nc2nc(C(=O)NCCN(C(C)C)C(C)C)cs2)cc1OC
relative cell density (vehicle: DMSO): 1.09 and 1.08

CC(C)(Oc1ccc(C(=O)c2ccc(Cl)cc2)cc1)C(=O)O
relative cell density (vehicle: DMSO): 1.39

CC1(C)O[C@@H]2C[C@H]3[C@@H]4CCC5=CC(=O)C=C[C@]5(C)[C@@]4(F)[C@@H](O)C[C@]3(C)[C@]2(C(=O)CO)O1
relative cell density (vehicle: DMSO): 1.08

Cc1cnc(NC(=O)C2=C(O)c3ccccc3S(=O)(=O)N2C)s1
relative cell density (vehicle: DMSO): 1.12

O=C(O)CCCc1ccccc1
relative cell density (vehicle: DMSO): 0.935

O=C(O)COC(=O)Cc1ccccc1Nc1c(Cl)cccc1Cl
relative cell density (vehicle: DMSO): 1.3

OC1(c2ccc(Cl)c(C(F)(F)F)c2)CCN(CCCC(c2ccc(F)cc2)c2ccc(F)cc2)CC1
relative cell density (vehicle: DMSO): 1.23

C[C@@H]1C[C@H]2[C@@H]3CCC4=CC(=O)C=C[C@]4(C)[C@@]3(F)[C@@H](O)C[C@]2(C)[C@@]1(O)C(=O)CO
relative cell density (vehicle: DMSO): 0.968

O=C1C2CC3CC1CC(O)(C3)C2
relative cell density (vehicle: DMSO): 1.05

CCN1CCN(c2cc3c(cc2F)c(=O)c(C(=O)O)cn3C2CC2)CC1
relative cell density (vehicle: Water): 1.1

Cc1nnc(NS(=O)(=O)c2ccc(N)cc2)s1
relative cell density (vehicle: DMSO): 1.25

CC1Cc2ccccc2N1NC(=O)c1ccc(Cl)c(S(N)(=O)=O)c1 (stereo unspecified)
relative cell density (vehicle: DMSO): 1.07

CO/N=C(\C(=O)N[C@@H]1C(=O)N2C(C(=O)O)=C(Cn3ccc(=N)n3CCO)CS[C@H]12)c1csc(N)n1
relative cell density (vehicle: Water): 0.761

CCC(=O)c1c(O)cc(O)cc1O
relative cell density (vehicle: DMSO): 1.01

CN1CCN(CCOc2cc(OC3CCOCC3)c3c(Nc4c(Cl)ccc5c4OCO5)ncnc3c2)CC1
relative cell density (vehicle: DMSO): 0.531

CO/N=C(\C(=O)N[C@@H]1C(=O)N2C(C(=O)O)=C(COC(N)=O)CS[C@H]12)c1ccco1
relative cell density (vehicle: DMSO): 1.25

O=C(NCC(O)CO)c1c(I)c(C(=O)NCC(O)CO)c(I)c(N(CCO)C(=O)CO)c1I (stereo unspecified)
relative cell density (vehicle: DMSO): 1.26

Nc1ccc(S(=O)(=O)Nc2ccnn2-c2ccccc2)cc1
relative cell density (vehicle: DMSO): 0.835

CCCCCCCCCCCCCCCC(=O)O[C@@H]1[C@@H](O)[C@@H](O)[C@@H]([C@H](NC(=O)[C@@H]2C[C@@H](CCC)CN2C)[C@H](C)Cl)O[C@@H]1SC
relative cell density (vehicle: DMSO): 1.16

O=C([O-])[O-].[Na+].[Na+]
relative cell density (vehicle: Water): 1.12

CC(=O)N1C[C@H](O)C[C@H]1C(=O)O
relative cell density (vehicle: DMSO): 0.968

C[C@H](CCC(=O)O)[C@H]1CC[C@H]2[C@@H]3CC[C@@H]4C[C@H](O)CC[C@]4(C)[C@H]3C[C@H](O)[C@]12C
relative cell density (vehicle: DMSO): 1.08

Nc1ccc2cc3ccc(N)cc3nc2c1
relative cell density (vehicle: Water): 0.103

O=C1CC2(CCCC2)CC(=O)N1CCCCN1CCN(c2ncccn2)CC1
relative cell density (vehicle: DMSO): 1.01

CC[C@H]1OC(=O)[C@H](C)[C@@H](O[C@H]2C[C@@](C)(OC)[C@@H](O)[C@H](C)O2)[C@H](C)[C@@H](O[C@@H]2O[C@H](C)C[C@H](N(C)C)[C@H]2O)[C@](C)(O)C[C@@H](C)[C@@H]2N[C@@H](COCCOC)O[C@H]([C@H]2C)[C@]1(C)O
relative cell density (vehicle: DMSO): 1.02

N#Cc1cc(-c2n[nH]c(-c3ccncc3)n2)ccn1
relative cell density (vehicle: DMSO): 1.01

Cc1c(F)cc(C(=O)NC2CC2)cc1-c1ccc(C(=O)NCC(C)(C)C)cn1
relative cell density (vehicle: DMSO): 1.21

COC(=O)N(C)c1c(N)nc(-c2nn(Cc3ccccc3F)c3ncccc23)nc1N
relative cell density (vehicle: DMSO): 1.05

C[C@H](O)C(=O)Nc1c(I)c(C(=O)NC(CO)CO)c(I)c(C(=O)NC(CO)CO)c1I
relative cell density (vehicle: DMSO): 1.25

CC(=O)OCC(COC(C)=O)OC(C)=O
relative cell density (vehicle: DMSO): 0.916

CC(=O)OCC=C(C)C=CC=C(C)C=CC1=C(C)CCCC1(C)C
relative cell density (vehicle: DMSO): 0.982

c1cnc2cc3c(cc2n1)[C@@H]1CNC[C@H]3C1
relative cell density (vehicle: Water): 1.04

NC(=O)N1c2ccccc2C=Cc2ccccc21
relative cell density (vehicle: DMSO): 0.671

Clc1ccc(C(Cn2ccnc2)OCc2c(Cl)cccc2Cl)c(Cl)c1 (stereo unspecified)
relative cell density (vehicle: DMSO): 1.1

NCCC[C@H](N)C(=O)O
relative cell density (vehicle: Water): 0.912

NC(CO)(CO)CO
relative cell density (vehicle: DMSO): 1.18

O=C(CCCCCCNC(=O)c1cnc(N(c2ccccc2)c2ccccc2)nc1)NO
relative cell density (vehicle: DMSO): 0.609

C=C1CC[C@H](O)C/C1=C/C=C1\CCC[C@]2(C)[C@@H]([C@H](C)CCCC(C)(C)O)CC[C@@H]12
relative cell density (vehicle: DMSO): 1.16

CC(C)[C@H]1C(=O)N[C@@H](CCCN=C(N)N)C(=O)NCC(=O)N[C@@H](CC(=O)O)C(=O)N[C@H](Cc2ccccc2)C(=O)N1C
relative cell density (vehicle: DMSO): 1.15

Nc1nc(=O)c2nc(CNc3ccc(C(=O)N[C@@H](CCC(=O)O)C(=O)O)cc3)cnc2[nH]1
relative cell density (vehicle: Water): 1.04

Nc1nc(F)nc2c1ncn2[C@@H]1O[C@H](CO)[C@@H](O)[C@@H]1O
relative cell density (vehicle: DMSO): 1.31

CC[C@H]1OC(=O)[C@H](C)[C@@H](O[C@H]2C[C@@](C)(OC)[C@@H](O)[C@H](C)O2)[C@H](C)[C@@H](O[C@@H]2O[C@H](C)C[C@H](N(C)C)[C@H]2O)[C@](C)(O)C[C@@H](C)/C(=N\OCOCCOC)[C@H](C)[C@@H](O)[C@]1(C)O
relative cell density (vehicle: DMSO): 1.09
